Test results taken from patent US8614021B2, “Agents for enhanced charge transport across microbial membranes” (The United States of America as represented by the …, priority 2010, dated 2013).

Test: Cryo-TEM and confocal microscopy of membrane modified vesicles (incorporation, molecular orientation)
Conditions: for accumulation in vesicle membranes (confocal fluorescence): multi-lamellar DMPC and DPPC vesicles, 5 mol % COE, excitation 488 nm; for molecular orientation within lipid bilayers: stationary vesicle, polarized excitation source

Row | SMILES | accumulation in vesicle membranes (confocal fluorescence) | molecular orientation within lipid bilayers
1 | C[N+](C)(C)CCCCCCN(CCCCCC[N+](C)(C)C)c1ccc(/C=C/c2ccc(/C=C/c3ccc(/C=C/c4ccc(N(CCCCCC[N+](C)(C)C)CCCCCC[N+](C)(C)C)cc4)cc3)cc2)cc1 [DSSN+, 4,4′-bis(4′-(N,N-bis(6″-(N,N,N-trimethylammonium)hexyl)amino)-styryl)stilbene tetraiodide] | preferential accumulation inside the vesicle membranes | ordered orientation with the long axis perpendicular to the plane of the membrane
2 | C[N+](C)(C)CCCCCCN(CCCCCC[N+](C)(C)C)c1ccc(C=Cc2ccc(C=Cc3ccc(N(CCCCCC[N+](C)(C)C)CCCCCC[N+](C)(C)C)cc3)cc2)cc1.[I-].[I-].[I-].[I-] [DSBN+, 1,4-bis(4′-(N,N-bis(6″-(N,N,N-trimethylammonium)hexyl)amino)-styryl)benzene tetraiodide] | preferential accumulation inside the vesicle membranes | ordered orientation with the long axis perpendicular to the plane of the membrane
